Some results were stated once for a whole list of compounds, not compound by compound.
Target: T1, MRP2 transporter (Homo sapiens, UniProt Q92887)
T1 construct: expressed in transfected cells; host or cells: insect cells (transiently transfected); inside-out membrane vesicles
Assay: In vitro MRP2 transporter assay (inside-out membrane vesicles, [3H]-estradiol-17β-glucuronide)
Assay type: in vitro ADME
Settings: tested at 0 to 100 uM
Description: To test the hypothesis that RG-101 was interfering with MRP2 transporter activity, an in vitro assay was performed per methods known in the art (see, for example, Vermeer et al., Drug Metab. Dispos., 2016, 44(3):453-9). In this assay, an efflux transporter-expressing vesicle is used to evaluate if a drug is a substrate or inhibitor of a transporter. Inside-out membrane vesicles are prepared from insect cells transiently transfected with a single efflux transporter, in this case MRP2. As the vesicles are in an inside-out orientation, the MRP2 transporter pumps radiolabeled substrate, [3H]-estradiol-17β-glucuronide, in an ATP-dependent manner, into the vesicles, and the accumulation of radiolabeled substrate inside the vesicle is measured. If a compound is an MRP2 transport inhibitor, the accumulation of radiolabeled substrate will be reduced relative to control samples. The inhibitory effect of the compound is evaluated by determining the IC50, the concentration resulting in 50% inhibition of transporter-mediated uptake of the radiolabeled substrate.
The in vitro MRP2 assay was performed for RG-101. Both RG-101, and RG1649, the unconjugated anti-miR of RG-101, were tested at concentrations of 0, 0.1, 0.3, 1, 3, 10, 30, and 100 uM. […] Thus, RG-101 inhibited the MPR2 transporter in this assay.
The MRP2 assay was performed for anti-miR-122 compounds selected based on potency in the HCV replicon assay and structural diversity.

Chains of the proteins cited; added tags and fusions are not shown. Lines headed by an entry give the natural chain unless they say otherwise; changes in a name come on top.
UniProt Q92887: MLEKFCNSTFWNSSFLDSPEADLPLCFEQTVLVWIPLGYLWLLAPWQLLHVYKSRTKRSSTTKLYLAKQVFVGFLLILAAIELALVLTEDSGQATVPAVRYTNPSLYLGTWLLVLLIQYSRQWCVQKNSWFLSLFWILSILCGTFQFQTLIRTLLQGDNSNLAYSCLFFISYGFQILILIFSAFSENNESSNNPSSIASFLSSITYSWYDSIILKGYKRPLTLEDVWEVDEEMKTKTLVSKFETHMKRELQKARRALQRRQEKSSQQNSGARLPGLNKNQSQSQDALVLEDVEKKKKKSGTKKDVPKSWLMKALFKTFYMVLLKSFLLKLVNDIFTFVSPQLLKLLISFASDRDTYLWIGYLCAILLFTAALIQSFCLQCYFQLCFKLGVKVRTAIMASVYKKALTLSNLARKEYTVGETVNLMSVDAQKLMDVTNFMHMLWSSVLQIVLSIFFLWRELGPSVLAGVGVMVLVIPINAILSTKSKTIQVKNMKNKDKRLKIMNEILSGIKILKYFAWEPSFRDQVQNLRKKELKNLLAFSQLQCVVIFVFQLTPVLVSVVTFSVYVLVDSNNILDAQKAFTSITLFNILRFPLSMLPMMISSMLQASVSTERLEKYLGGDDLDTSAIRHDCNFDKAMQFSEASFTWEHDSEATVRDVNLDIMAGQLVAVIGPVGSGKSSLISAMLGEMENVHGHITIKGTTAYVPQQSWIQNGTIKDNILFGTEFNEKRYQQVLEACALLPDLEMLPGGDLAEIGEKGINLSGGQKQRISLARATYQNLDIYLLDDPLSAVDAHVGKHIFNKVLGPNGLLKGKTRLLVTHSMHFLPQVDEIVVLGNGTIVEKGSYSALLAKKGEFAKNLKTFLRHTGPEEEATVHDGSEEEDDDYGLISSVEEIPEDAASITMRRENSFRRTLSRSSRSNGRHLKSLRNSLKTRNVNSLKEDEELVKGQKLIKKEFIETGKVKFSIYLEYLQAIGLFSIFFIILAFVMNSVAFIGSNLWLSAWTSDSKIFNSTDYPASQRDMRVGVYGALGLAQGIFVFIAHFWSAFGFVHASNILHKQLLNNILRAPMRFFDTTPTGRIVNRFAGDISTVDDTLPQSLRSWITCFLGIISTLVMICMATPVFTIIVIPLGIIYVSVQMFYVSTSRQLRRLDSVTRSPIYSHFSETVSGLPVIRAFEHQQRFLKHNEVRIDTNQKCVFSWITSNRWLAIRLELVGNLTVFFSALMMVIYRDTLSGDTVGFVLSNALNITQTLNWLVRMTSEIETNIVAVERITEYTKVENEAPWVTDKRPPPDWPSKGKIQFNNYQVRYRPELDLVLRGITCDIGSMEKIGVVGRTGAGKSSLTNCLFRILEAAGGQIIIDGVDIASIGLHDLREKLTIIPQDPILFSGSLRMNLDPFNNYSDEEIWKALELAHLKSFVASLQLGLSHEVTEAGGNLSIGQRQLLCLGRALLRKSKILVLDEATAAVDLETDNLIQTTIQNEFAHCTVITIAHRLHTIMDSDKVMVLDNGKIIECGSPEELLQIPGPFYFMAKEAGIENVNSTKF

Substance: CSASCSASCSUSCSCS [RG2634]
- IC50: > 100 µM

Substance: CSASCSASCSUSCSCSAS [RG6234]
- IC50: > 100 µM

Substance: CsASCSASCSUSCSCSAS [RG6370]
- IC50: > 100 µM

Substance: USCSASCSASCSUSCSCS [RG3054]
- IC50: > 100 µM
